Measurements taken from US6634576B2, “Milled particles” (RTP Pharma Inc., priority 2000, dated 2003).
At least one structure is not confirmed: it was looked up by name or label, or the drawing left a doubt.

Test: Particle size of media-milled solid drug suspension
Format: physicochemical
Settings: Example 1: fenofibrate milled in water with sucrose and Lipoid E-80, using poly(styrene-co-divinylbenzene) beads and silicon dioxide (Nyacol 9950); suspension in aqueous fluid

In the case of `CC(C)OC(=O)C(C)(C)Oc1ccc(C(=O)c2ccc(Cl)cc2)cc1` [fenofibrate], the “volume weighted mean diameter” value is reported as “about 0.84 micrometers”.
